Experimental data reported in PubChem BioAssay AID2551 (National Center for Advancing Translational Sciences (NCATS), 2010).
The campaign covered roughly 310,000 compounds. About 17,000 (5.5%) were called active. This list was built around the results that the source calls inconclusive (neither active nor inactive); the mix of calls is not that of the screen. Calls follow the shape of the dose curve; as a rule, active = well fitted inhibition curve with a large enough effect; inconclusive = small, poorly fitted or top-dose-only effect, or effect the other way; inactive = no such curve, though single readings can be large or run the other way. A potency beside an inconclusive call is a rough fit, not a confirmed value.
% is scaled to controls: 0 for no effect and ±100 for the full control effect; potency is read from the fitted curve at half-maximal effect.
Also: nearly all actives have a fitted effect of over 60% in size.

By UniProt entry, the sequences of proteins in these tests, tags left out. Where a name states a change or a piece, a line headed by the entry shows the natural chain unless it says otherwise.
UniProt P51450: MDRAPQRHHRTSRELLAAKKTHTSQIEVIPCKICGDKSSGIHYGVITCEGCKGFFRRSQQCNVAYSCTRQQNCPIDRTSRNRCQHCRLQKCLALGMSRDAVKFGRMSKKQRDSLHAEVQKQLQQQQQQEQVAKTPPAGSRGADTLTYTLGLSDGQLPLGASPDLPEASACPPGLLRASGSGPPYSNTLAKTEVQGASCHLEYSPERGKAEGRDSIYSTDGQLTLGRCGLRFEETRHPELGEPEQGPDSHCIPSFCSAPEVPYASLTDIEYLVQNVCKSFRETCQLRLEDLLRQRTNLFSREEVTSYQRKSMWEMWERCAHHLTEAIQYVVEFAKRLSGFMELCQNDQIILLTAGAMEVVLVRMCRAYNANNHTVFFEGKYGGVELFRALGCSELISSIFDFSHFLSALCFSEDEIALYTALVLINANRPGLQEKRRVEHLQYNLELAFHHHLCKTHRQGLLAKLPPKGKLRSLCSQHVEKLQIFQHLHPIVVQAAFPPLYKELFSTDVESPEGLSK

These compounds were tested against Nuclear receptor ROR-gamma (Mus musculus) (UniProt P51450) (assay: qHTS for inhibitors of ROR gamma transcriptional activity). Conditions: Drosophila S2 Gal4-RORgamma UAS-luciferase reporter, 20 h; activity change, negative = inhibition: at 53.6 µM (top of the series).
How it was run: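 Using a luciferase readout, inhibitors were identified by reduced reporter activity in Drosophila cells coexpressing a copper-inducible Gal4–ROR gamma fusion and UAS-driven Photinus luciferase, incubated 20 hr after 700 uM copper sulfate.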
In the case of `COC(=O)C1CCN(C(=O)Nc2ccccc2)CC1`, the Potency is reported as “inactive”. For `COc1ccc(-c2cc(C(=O)N3CCCC3)c3ccccc3n2)cc1OC`, the Potency was “inactive”. In the case of `CCOc1ccc(-c2nnn(CC(=O)c3cc(OC)ccc3OC)n2)cc1`, the Potency is reported as inconclusive: 14.1 µM [activator, single point]. `COc1cc(C(c2c(C)[nH][nH]c2=O)c2c(C)[nH][nH]c2=O)ccc1OC(C)C` was tested, and the Potency was “inactive”. For `CN(C)c1ccc(/C=c2\sc3n(c2=O)CCCN=3)cc1`, the Potency was inconclusive: 20 µM [inhibitor, partial curve, poor fit]. In the case of `O=C(Nc1nc2c(s1)C(=O)CCC2)c1ccccc1`, the Potency is reported as inconclusive: 12.6 µM [inhibitor, partial curve]. With `COC(=O)c1c(C)[nH]c(C(=O)/C=C/c2ccc(C)cc2)c1C` the Potency was active: 0.316 µM. For `COc1ccc(CCNC(=O)C/C(C)=N/NC(=O)c2ccc(Cl)cc2Cl)cc1OC`, the Potency was “inactive”. With `CCOc1cc(/C=C2\SC(=N)N(c3nonc3N)C2=O)ccc1OCCN1CCOCC1` the Potency was active: 3.16 µM. In the case of `Cc1cc(-c2n[nH]c(=S)n2-c2ccc(C)c(C)c2)no1`, the Potency is reported as “inactive”. `Cc1ccccc1-n1c(-c2ccc3ccccc3n2)n[nH]c1=S` was tested, and the Potency was active: 0.316 µM. With `COc1ccc(C(=O)N/C(=C\c2cccs2)c2nc3ccccc3[nH]2)cc1OC` the Potency was “inactive”. `C=C(C)C1Cc2c(C)nn(-c3ccccn3)c2C1` (centres undefined) was tested, and the Potency was active: 12.6 µM. In the case of `O=C(NCCCn1ccnc1)c1cc(Br)c(Br)s1`, the Potency is reported as “inactive”. For `COc1ccc(N2CCN(C(=O)CNC(=O)c3cn(-c4ccccc4OC)c(=O)c4ccccc34)CC2)cc1`, the Potency was inconclusive: 35.5 µM [activator, single point]. In the case of `CC(C)n1c(SCC(=O)Nc2nc3c(s2)CCCC3)nc2c1c(=O)n(C)c(=O)n2C`, the Potency is reported as inconclusive: 7.94 µM [activator, partial curve, poor fit]. For `Cn1cc(CN2CCC(CO)(CCCc3ccccc3)CC2)c(-c2ccccc2)n1`, the Potency was inconclusive: 6.31 µM [inhibitor, single point]. With `COC(=O)[C@@H]1CC[C@H](C)[C@@H](c2ccc(C)cc2)N1C(=O)c1ccc(/C=N\OCC[C@@H]2C=C[C@H](OC(C)=O)[C@H](COC(C)=O)O2)cc1` the activity change, negative = inhibition was inactive: 16.8% [at 10 µM]. With `CC(C)Sc1oc(-c2ccco2)nc1S(=O)(=O)c1ccc(F)cc1` the Potency was inconclusive: 0.708 µM [activator, single point]. For `O=C(N/N=C/c1cn(-c2ccccc2)nc1-c1cc2ccccc2o1)c1ccncc1`, the Potency was active: 2.82 µM. With `COc1ccc(-c2nnn(CC(=O)c3ccc4c(c3)OCCO4)n2)cc1OC` the Potency was inconclusive: 17.8 µM [activator, partial curve, poor fit]. With `CC(=O)NC(c1ccc(C(C)C)cc1)c1ccc2cccnc2c1O` (centres undefined) the Potency was active: 3.55 µM. In the case of `O=C(NNC1=C(C(=O)C(F)(F)F)CCC1)c1ccncc1`, the Potency is reported as inconclusive: 5.01 µM [inhibitor, partial curve]. In the case of `COc1ccc2c(c1)C=CC1(O2)N(CCO)c2ccccc2C1(C)C` (centres undefined), the Potency is reported as inconclusive: 15.8 µM [inhibitor, single point]. `Cc1[nH]nc(N)c1-c1ccccc1` was tested, and the Potency was “inactive”. In the case of `C#CCOCCOCCOCCNc1nc(N2CCN(C(=O)[C@H]([C@@H](C)CC)n3cc(CCCCN)nn3)CC2)nc(N2CCN(C(=O)[C@H](C)n3cc(CCC(=O)O)nn3)CC2)n1`, the Potency is reported as inconclusive: 0.282 µM [inhibitor, full curve, poor fit]. `O=C(C1CCN(S(=O)(=O)c2cccc3nsnc23)CC1)N1CCCc2ccccc21` was tested, and the Potency was “inactive”. In the case of `CCOc1cc(CNc2ccc(OC)cc2)cc(Br)c1OCC(=O)NC(C)(C)C`, the Potency is reported as “inactive”. In the case of `CNC(=S)N/N=C/c1c(C)nn(-c2ccccc2)c1Cl`, the Potency is reported as inconclusive: 0.631 µM [inhibitor, single point]. For `O=C(Oc1cccc(Nc2ncnc3ccccc23)c1)c1ccccc1Cl`, the Potency was inconclusive: 20 µM [activator, single point]. For `CC(C)CNC(=S)NNC(=O)c1ccc2c(c1)OCO2`, the Potency was inconclusive: 20 µM [inhibitor, partial curve]. In the case of `O=C(O)c1cccc(N/N=C/c2cn(-c3ccccc3)nc2-c2cccs2)c1`, the Potency is reported as inconclusive: 2 µM [activator, partial curve, poor fit]. `Cc1ccc(/C=C/C(=O)Nc2cccc3ncccc23)o1` was tested, and the Potency was inconclusive: 35.5 µM [inhibitor, single point]. For `O=[N+]([O-])c1cccc2ccc(/C=C/c3cccc(Br)c3)nc12`, the Potency was inconclusive: 12.6 µM [activator, partial curve]. For `Cc1ccc(C(=O)C(c2ccccc2)N2Cc3ccccc3C2=N)cc1` (centres undefined), the Potency was active: 3.98 µM. With `COc1ccc(NS(=O)(=O)c2ccc(Br)s2)cc1OC` the Potency was inconclusive: 11.2 µM [activator, partial curve]. `Cc1ccc2c(c1)C(=O)[C@@]1(O)CCN(c3ccccc3)C1=N2` was tested, and the Potency was inconclusive: 35.5 µM [activator, single point]. `CCCC(=O)OCCNc1cc(SCc2ccco2)c2nonc2c1[N+](=O)[O-]` was tested, and the Potency was inconclusive: 35.5 µM [inhibitor, single point]. `O=C(Nc1cccc(Cl)c1)OC1CCCCc2cccnc21` (centres undefined) was tested, and the Potency was inconclusive: 11.2 µM [inhibitor, partial curve, poor fit]. For `COc1ccc(C(=O)N/N=C/c2c(CO)cnc(C)c2O)cc1`, the Potency was inconclusive: 10 µM [inhibitor, partial curve]. `CC1=C(C(=O)Nc2ccccc2C(F)(F)F)C(c2ccc(C)s2)NC(=S)N1` (centres undefined) was tested, and the Potency was inconclusive: 17.8 µM [inhibitor, single point]. `O=C(NNC(=S)NC(=O)c1cccs1)c1ccc(O)cc1` was tested, and the Potency was active: 7.94 µM. For `O=C(Nc1ccc(NC(=O)c2ccc([N+](=O)[O-])o2)cc1Cl)c1ccco1`, the Potency was “inactive”. `COc1ccc(S(=O)(=O)Nc2ccc(-n3cccc3)cc2)cc1` was tested, and the Potency was active: 11.2 µM. For `O=C(O)CCCCC1SCC2NC(=O)NC21` (centres undefined), the Potency was “inactive”. With `Cc1cc(C)nc(Nc2ccc(C)c([N+](=O)[O-])c2)n1` the Potency was inconclusive: 35.5 µM [activator, single point]. For `CCOC(=O)C1C(c2cc(OC)c(OC)c(OC)c2)NC(=S)NC1(O)C(F)(F)F` (centres undefined), the Potency was “inactive”. In the case of `COc1cc(/C(C)=N\NC(N)=S)cc(OC)c1OC`, the Potency is reported as active: 5.62 µM. For `Cc1cc(NC(=O)C(C)SCC(=O)N(C)CC(=O)Nc2ccc(Br)cc2C)no1` (centres undefined), the Potency was active: 12.6 µM. For `COc1ccc(S(=O)(=O)N2CCN(C(=O)N(C)C)C2C)cc1` (centres undefined), the Potency was inconclusive: 15.8 µM [inhibitor, single point]. In the case of `CC(=O)NNC(=O)c1sc(=S)n2c1[nH]c(=O)c1sccc12`, the Potency is reported as inconclusive: 15.8 µM [inhibitor, single point]. `CCN(CC)S(=O)(=O)c1cc(NC(=O)Cn2cnc3ccccc3c2=O)ccc1C` was tested, and the Potency was “inactive”. In the case of `O=S(=O)(Cc1cc(Oc2ccccc2)nc(-c2ccccc2)n1)c1ccccc1`, the Potency is reported as “inactive”. In the case of `COc1cc(Cl)c(C)cc1NC(=S)NN`, the Potency is reported as active: 2.51 µM. For `COc1cc([C@H]2c3[nH]c4ccccc4c3C[C@H]3C(=O)N4[C@@H](c5cc(OC)c(OC)c(OC)c5)c5[nH]c6ccccc6c5C[C@H]4C(=O)N23)cc(OC)c1OC`, the Potency was inconclusive: 22.4 µM [inhibitor, single point]. `CCC1(CC)Cc2ccccc2C(=C(C#N)C#N)N1` was tested, and the Potency was inconclusive: 5.62 µM [inhibitor, single point]. For `O=C1CCCC=C1[C@H](O)CCCCBr`, the activity change, negative = inhibition was inactive: -4.14% [at 10 µM]. With `Cc1c(CCO)c(=O)[nH]n1S(=O)(=O)c1ccc([N+](=O)[O-])cc1` the Potency was inconclusive: 5.01 µM [inhibitor, partial curve]. In the case of `CCc1cc(OCCN2C(=O)NC(C)(C)C2=O)ccc1Cl`, the Potency is reported as inconclusive: 1.26 µM [activator, full curve]. `Clc1cccc(Cl)c1COn1nnc2ccccc21` was tested, and the Potency was inconclusive: 2.51 µM [activator, full curve]. In the case of `COc1ccc(NC(=S)N(Cc2ccc(N(C)C)cc2)Cc2ccco2)cc1`, the Potency is reported as active: 12.6 µM. With `Cc1cc(C)c2[nH]c(=S)cc(C)c2c1` the Potency was “inactive”. `Cc1ccc([N+](=O)[O-])cc1NC(=S)NC(=O)c1ccco1` was tested, and the Potency was “inactive”. `COc1ccc(C(=O)NNC(=O)C(Cc2ccc(O)cc2)NC(=O)c2ccccc2NC(=O)c2ccc(OC)cc2)cc1` (centres undefined) was tested, and the Potency was “inactive”. With `O=C(Oc1ccccc1)N1CCC2(CCCN(c3ncccn3)C2)CC1` the Potency was inconclusive: 35.5 µM [inhibitor, single point]. In the case of `C=CCc1ccc(O)c(-c2cc(CC=C)ccc2O)c1`, the Potency is reported as “inactive”. For `CCN(CC)C(=O)c1cnn(-c2ccccc2)c1NC(=O)c1ccccc1F`, the Potency was inconclusive: 6.31 µM [inhibitor, single point]. `Cn1nccc1NC(=O)Nc1ccccc1` was tested, and the Potency was “inactive”. With `O=C(Nc1cc(S(=O)(=O)Nc2ccc(Cl)cc2)ccc1N1CCCCC1)c1ccc(F)cc1Cl` the Potency was inconclusive: 35.5 µM [activator, single point]. In the case of `COc1cccc(C2C(C(C)=O)=C(O)C(=O)N2CCc2c[nH]c3ccccc23)c1` (centres undefined), the Potency is reported as active: 112 µM. In the case of `COC(=O)c1ccc(OCC(=O)NC2CCCCCC2)cc1`, the Potency is reported as inconclusive: 14.1 µM [activator, single point]. With `O=C(NCC1CCCCC1)c1cc2ccccc2cc1O` the Potency was “inactive”. For `Cc1nnc(SCC(=O)NCCc2ccccc2)s1`, the Potency was “inactive”. `C=C(CO)C1Cc2c(ccc3c2OC2COc4cc(OC)c(OC)cc4C2C3=O)O1` (centres undefined) was tested, and the Potency was inconclusive: 0.631 µM [inhibitor, full curve].
